Small differences around the control level are noise.
Key:
Test in all cases: normalised response (% of control), CellTox Green; higher = less cell death (100 = DMSO, 0 = benzethonium chloride kill control)
Settings in all cases: incubation time: 72 h
HCC1599 [1] = test system: HCC1599
Method: (§1)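 DSRT, 72 h incubation, CellTox Green / CellTiter-Glo readout. Signal is normalised to DMSO and benzethonium chloride controls. Value is the normalised response at the lowest tested concentration.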

MCF-10A [2] = test system: MCF-10A
Method: as §1

BT-474 [3] = test system: BT-474
Method: as §1

HCC1143 [4] = test system: HCC1143
Method: as §1

MDA-MB-453 [5] = test system: MDA-MB-453
Method: as §1

MDA-MB-231 [6] = test system: MDA-MB-231
Method: as §1

CAL-51 [7] = test system: CAL-51
Method: as §1

DU-4475 [8] = test system: DU-4475
Method: as §1

MDA-MB-468 [9] = test system: MDA-MB-468
Method: as §1

BT-549 [10] = test system: BT-549
Method: as §1

CAL-120 [11] = test system: CAL-120
Method: as §1

Hs578T [12] = test system: Hs578T
Method: as §1

CAL-85-1 [13] = test system: CAL-85-1
Method: as §1

CAL-148 [14] = test system: CAL-148
Method: as §1

MFM-223 [15] = test system: MFM-223
Method: as §1

HCC1937 = test system: HCC1937
Method: as §1

MDA-MB-436 [16] = test system: MDA-MB-436
Method: as §1

HCC1599 [17] = test system: HCC1599; remark: listed apart in the source
Method: (§2)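 DSRT, 72 h incubation, CellTox Green / CellTiter-Glo readout. Signal is normalised to DMSO and benzethonium chloride controls. Value is the normalised response at dose 2.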

MCF-10A [18] = test system: MCF-10A; remark: listed apart in the source
Method: as §2

BT-474 [19] = test system: BT-474; remark: listed apart in the source
Method: as §2

HCC1143 [20] = test system: HCC1143; remark: listed apart in the source
Method: as §2

MDA-MB-453 [21] = test system: MDA-MB-453; remark: listed apart in the source
Method: as §2

MDA-MB-231 [22] = test system: MDA-MB-231; remark: listed apart in the source
Method: as §2

CAL-51 [23] = test system: CAL-51; remark: listed apart in the source
Method: as §2

DU-4475 [24] = test system: DU-4475; remark: listed apart in the source
Method: as §2

MDA-MB-468 [25] = test system: MDA-MB-468; remark: listed apart in the source
Method: as §2

BT-549 [26] = test system: BT-549; remark: listed apart in the source
Method: as §2

CAL-120 [27] = test system: CAL-120; remark: listed apart in the source
Method: as §2

CAL-85-1 [28] = test system: CAL-85-1; remark: listed apart in the source
Method: as §2

CAL-148 [29] = test system: CAL-148; remark: listed apart in the source
Method: as §2

MFM-223 [30] = test system: MFM-223; remark: listed apart in the source
Method: as §2

MDA-MB-436 [31] = test system: MDA-MB-436; remark: listed apart in the source
Method: as §2

HDQ-P1 = test system: HDQ-P1
Method: as §2

Hs578T [32] = test system: Hs578T; remark: listed apart in the source
Method: as §2

Compound | normalised response (HCC1599 [1]) | normalised response (MCF-10A [2]) | normalised response (BT-474 [3]) | normalised response (HCC1143 [4]) | normalised response (MDA-MB-453 [5]) | normalised response (MDA-MB-231 [6]) | normalised response (CAL-51 [7]) | normalised response (DU-4475 [8]) | normalised response (MDA-MB-468 [9]) | normalised response (BT-549 [10]) | normalised response (CAL-120 [11]) | normalised response (Hs578T [12]) | normalised response (CAL-85-1 [13]) | normalised response (CAL-148 [14]) | normalised response (MFM-223 [15]) | normalised response (HCC1937) | normalised response (MDA-MB-436 [16]) | normalised response (HCC1599 [17]) | normalised response (MCF-10A [18]) | normalised response (BT-474 [19]) | normalised response (HCC1143 [20]) | normalised response (MDA-MB-453 [21]) | normalised response (MDA-MB-231 [22]) | normalised response (CAL-51 [23]) | normalised response (DU-4475 [24]) | normalised response (MDA-MB-468 [25]) | normalised response (BT-549 [26]) | normalised response (CAL-120 [27]) | normalised response (CAL-85-1 [28]) | normalised response (CAL-148 [29]) | normalised response (MFM-223 [30]) | normalised response (MDA-MB-436 [31]) | normalised response (HDQ-P1) | normalised response (Hs578T [32])
CC1(C)CCC(CN2CCN(c3ccc(C(=O)NS(=O)(=O)c4ccc(NCC5CCOCC5)c([N+](=O)[O-])c4)c(Oc4cnc5[nH]ccc5c4)c3)CC2)=C(c2ccc(Cl)cc2)C1 [ABT-199] (1 nM) | 105% | 84.5% | 100% | 95.8% | 104% | 98.4% | 87.7% | 99.9% | 95.1% | 94.4% | 101% | 104% | 98.7% | 103% | 101% | 64.5% | 83.8% |  |  |  |  |  |  |  |  |  |  |  |  |  |  |  |  | 
CN1CC[C@H](c2c(O)cc(O)c3c(=O)cc(-c4ccccc4Cl)oc23)[C@H](O)C1 [Alvocidib] (1 nM) | 98.8% | 102% | 104% | 110% | 113% | 93.9% | 113% | 99.1% | 54.9% | 90.7% | 102% | 104% | 101% | 108% | 100% |  | 58.5% |  |  |  |  |  |  |  |  |  |  |  |  |  |  |  |  | 
CC(O)(CS(=O)(=O)c1ccc(F)cc1)C(=O)Nc1ccc(C#N)c(C(F)(F)F)c1 (configuration not stated) [Bicalutamide] (1 nM) | 94.2% | 98.6% | 102% | 113% | 108% |  | 121% | 101% | 109% | 95.1% | 105% |  | 98.3% | 109% | 97.3% | 102% | 83.9% |  |  |  |  |  |  |  |  |  |  |  |  |  |  |  |  | 
COc1cc2c(cc1-c1c(C)noc1C)ncc1[nH]c(=O)n([C@H](C)c3ccccn3)c12 [I-BET151] (1 nM) | 105% | 91% | 101% | 116% | 109% | 103% | 87.7% | 104% | 119% | 86.8% | 103% | 116% | 97% | 94.4% | 87.5% | 70.6% | 96.3% |  |  |  |  |  |  |  |  |  |  |  |  |  |  |  |  | 
C=CC(=O)N1CCC[C@@H](n2nc(-c3ccc(Oc4ccccc4)cc3)c3c(N)ncnc32)C1 [Ibrutinib] (0.1 nM) | 106% | 100% | 102% | 109% | 108% | 108% | 117% | 104% | 87.8% | 94.9% | 97.5% | 99.4% | 98.6% | 88% | 91.8% | 69.4% | 53.5% |  |  |  |  |  |  |  |  |  |  |  |  |  |  |  |  | 
C[C@]12O[C@H](C[C@]1(O)CO)n1c3ccccc3c3c4c(c5c6ccccc6n2c5c31)CNC4=O [Lestaurtinib] (1 nM) |  |  |  |  |  |  |  |  |  |  |  |  |  |  |  |  |  | 93.9% | 67.7% | 99.2% | 107% | 94.9% | 92.9% | 103% | 96.2% | 82.2% | 88% | 94.5% | 97.4% | 92.9% | 96.8% | 74.4% | 87.5% | 
Cc1cc(C(C)Nc2ccccc2)c2nc(N3CCOCC3)cc(=O)n2c1 (configuration not stated) [TGX-221] (1 nM) | 107% | 98.7% | 101% | 113% | 104% | 106% | 116% | 100% | 96.8% | 97.9% | 99.9% |  | 101% | 89.3% | 105% | 97.8% | 108% |  |  |  |  |  |  |  |  |  |  |  |  |  |  |  |  | 
FC(F)c1nc2ccccc2n1-c1nc(N2CCOCC2)nc(N2CCOCC2)n1 [ZSTK474] (1 nM) | 111% | 106% | 101% | 113% | 104% | 109% | 98% | 111% | 104% | 99.2% | 107% | 116% | 105% | 102% | 107% | 115% | 95.8% |  |  |  |  |  |  |  |  |  |  |  |  |  |  |  |  | 
FC(F)c1nc2ccccc2n1-c1nc(N2CCOCC2)nc(N2CCOCC2)n1 [ZSTK474] (10 nM) |  |  |  |  |  |  |  |  |  |  |  |  |  |  |  |  |  | 102% | 101% | 106% | 117% | 99.8% | 112% | 88.4% | 95.7% |  | 113% | 97.2% | 111% | 107% | 103% | 98.8% | 98.1% | 76%
